Consider one molecule from patent US20260002127A1.

The target of assay [1] is T1, C-reactive protein (rCRP) (manufactured by Oriental Yeast Co., Ltd.) (UniProt P02741).
T1 sequence (looked up): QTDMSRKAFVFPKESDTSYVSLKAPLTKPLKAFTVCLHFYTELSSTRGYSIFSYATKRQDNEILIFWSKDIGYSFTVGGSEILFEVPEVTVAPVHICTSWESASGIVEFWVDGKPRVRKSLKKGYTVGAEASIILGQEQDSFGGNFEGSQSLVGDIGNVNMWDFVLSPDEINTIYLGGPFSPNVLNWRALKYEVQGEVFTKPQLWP
Description: ELISA; rCRP (0.5 µg/mL) immobilized on plate, culture supernatant, HRP-labeled anti-rabbit IgG detection.

In assay [2] the target is T1, C-reactive protein (rCRP) (manufactured by Oriental Yeast Co., Ltd.). Briefly: Western blot; rCRP after SDS-PAGE on PVDF membrane, HRP goat anti-rabbit IgG secondary. For orientation: In western blotting, separated proteins are transferred to a membrane and probed.

No constants are given. Whether binding was seen depends on the method and setting. Some results given as binding are weak or reduced against the parent protein; the word gives no strength.

B1: anti-rCRP rabbit monoclonal antibody (antibody, V domains shown)
VH: QSVEESGGRLVKPDETLTLTCTVSGIDLSSDAMSWVRQAPGKGLEYIGIISSSGSTYYASWAKGRFTISRTSTTVDLKMTSPTTEDTATYFCARVADGVYRGVVLVSYLNLWGPGTLVTVSS
VL: AQVLTQTPSSVSAAVGGTVTINCQSSPSVFSNYLSWYQQKPGQPPKLLIYRASTLASGGPSRFKGSGSGAQFTLTISDVQCDDAATYYCAGGYTTTSDGYAFGGGTEVVVKG
B1: the binding result in assay [1] and in assay [2] was “binds” each time.
